Our source for the CC50 values is PMC2949399, “Gene Expression Signature-Based Screening Identifies New Broadly Effective Influenza A Antivirals” (PLoS ONE, 2010).

The data set can be described thus: in vitro. The conditions noted are these: human.

As to `Cc1cc(/C=C/c2ccc3cc(N(C)C)ccc3[n+]2C)c(C)n1-c1ccccc1` [Pyrvinium, pyrvinium], the CC50 was 854 µM.
